Assay results from PubChem BioAssay (EPA / NIEHS).
Several values for one entry are separate records, joined by “and”; a condition that tells them apart may be missing. Equal values may be shown once. The inconclusive results got no clear call from the source; some entries with a clear call stand among them for comparison. A potency beside an inconclusive call is a rough fit, not a confirmed value. Some compounds were tested as several samples or in several runs, with calls that do not always agree. Activity calls are given as the source filed them. How the source made its calls: active means hit-call score of the fitted dose curve at least 0.9, where 1 is the maximum; inconclusive means response in the unintended direction; inactive means score below 0.9.

The chains behind the UniProt entries cited, without tags or fusion partners.
UniProt P04637, whole entry, looked up: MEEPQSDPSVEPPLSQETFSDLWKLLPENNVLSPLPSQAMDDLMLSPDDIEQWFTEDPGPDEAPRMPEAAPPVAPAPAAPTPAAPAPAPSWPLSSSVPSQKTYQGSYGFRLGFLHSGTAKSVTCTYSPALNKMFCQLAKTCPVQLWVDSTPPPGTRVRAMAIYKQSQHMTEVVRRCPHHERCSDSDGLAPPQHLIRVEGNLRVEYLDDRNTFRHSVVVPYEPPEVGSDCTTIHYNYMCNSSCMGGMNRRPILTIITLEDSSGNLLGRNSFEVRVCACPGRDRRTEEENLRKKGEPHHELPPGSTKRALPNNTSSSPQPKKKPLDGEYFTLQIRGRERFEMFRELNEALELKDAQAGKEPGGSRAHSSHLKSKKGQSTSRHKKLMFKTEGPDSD

Assays:
[1] = TOX21_p53_BLA_p4_viability: Viability Assessment in the Tox21 HCT-116 p53 Agonism Beta-lactamase Assay, Phase 4 (AID 2283597);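 further: hits lower the luminescence signal meaning cytotoxicity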
Procedure, shortened: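 Cells plated, 5 h pre-incubation; DMSO compounds pinned (217-fold dilution); 16 h, 37C/5% CO2; CCF4-AM 2 h RT; CellTiter-Glo 30 min RT; luminescence read.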

[2] = TOX21_p53_BLA_p5_viability: Viability Assessment in the Tox21 HCT-116 p53 Agonism Beta-lactamase Assay, Phase 5 (AID 2283600)
Procedure, shortened: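 4000 cells/well; 5 h pre-incubation; DMSO compounds pin-transferred, 217-fold dilution; 16 h, 37C/5% CO2; CCF4-AM 2 h RT; CellTiter-Glo 30 min RT; luminescence.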

[3] = molecular target: Cellular tumor antigen p53 (Homo sapiens) (UniProt P04637); assay: TOX21_p53_BLA_p4_ratio: Tox21 HCT-116 p53 Agonism Beta-lactamase Assay, Ratio, Phase 4 (AID 2283601)
Procedure, shortened: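 Signal is the blue/green (460nm/530nm) ratio of cleaved versus uncleaved CCF4-AM substrate, read after 2 h substrate loading. Cells were HCT116 carrying the p53-responsive beta-lactamase reporter, dosed 16 h at 37C, 5% CO2; CellTiter-Glo measured in parallel.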

[4] = Tanguay_ZF_120hpf_JAW_legacy: (Legacy) Oregon State University Tanguay Lab 120 Hour Post-fertilization zebrafish Assay for Jaw Malformation (AID 2283638);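 on AC50: active means more embryos with jaw malformation than DMSO controls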
Procedure, shortened: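 Steps: dechorionate 4 hpf embryos (pronase); plate 1/well at 6 hpf; add test chemical, 0.64% DMSO final; seal, cover, hold at 28C statically to 120 hpf; score jaw defect presence/absence microscopically. Dead embryos not scored.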

[5] = Tanguay_ZF_120hpf_YSE_legacy: (Legacy) Oregon State University Tanguay Lab 120 Hour Post-fertilization zebrafish Assay for Yolk Sac Edema (AID 2283634);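 on AC50: actives raise the incidence of yolk sac edema above the DMSO baseline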
Procedure, shortened: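 Dechorionate (pronase, 4 hpf) → place one 6 hpf embryo per well → static compound exposure, sealed and foil-covered, 28C, to 120 hpf → record yolk sac edema as present or absent. Final DMSO 0.64%.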

[6] = Tanguay_ZF_120hpf_AXIS_legacy: (Legacy) Oregon State University Tanguay Lab 120 Hour Post-fertilization zebrafish Assay for Body Axis Malformation (AID 2283635);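 further: potency for an increased fraction of larvae scored with body axis malformation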
Procedure, shortened: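 Chorion is removed with pronase at 4 hpf, then single 6 hpf embryos are dosed (final DMSO 0.64%) and held statically at 28C in sealed, foil-covered plates. At 120 hpf body axis malformation is recorded as present or absent.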

[7] = Tanguay_ZF_120hpf_EYE_legacy: (Legacy) Oregon State University Tanguay Lab 120 Hour Post-fertilization zebrafish Assay for Eye Malformation (AID 2283636)
Procedure, shortened: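 Read-out is binary presence or absence of eye malformation, scored by brightfield microscopy at 120 hpf. Single larvae were exposed from 6 hpf in embryo medium containing 0.64% DMSO, with DMSO as baseline.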

[8] = Tanguay_ZF_120hpf_OTIC_legacy: (Legacy) Oregon State University Tanguay Lab 120 Hour Post-fertilization zebrafish Assay for Otic Vesicle Malformation (AID 2283639)
Procedure, shortened: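 Tropical 5D wild-type zebrafish embryos statically exposed in 0.64% DMSO at 28C until 120 hpf; 5uM trimethyltin chloride as positive control. Otic vesicle malformation scored present/absent by brightfield; dead embryos not scored; gain fitted versus DMSO.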

## CCCCOC(=O)CCCCCCCC(=O)OCCCC
[1]
  AC50: inconclusive: 46.1 µM
[2]
  AC50: inconclusive: 46.1 µM
[3]
  AC50: inconclusive: 46.1 µM

## Cc1cc(C(C)(C)C)c(O)c(C(C)(C)C)c1
[1]
  outcome: inactive
[2]
  AC50: inconclusive: 23 µM
  outcome: inactive
[3]
  AC50: inconclusive: 31.2 µM and inconclusive: 23 µM

## C=CCCCCCCCCC=O
[1]
  outcome: inactive
[2]
  outcome: inactive
[3]
  AC50: inconclusive: 46.1 µM

## COc1cc(CCC(C)=O)ccc1O
[1]
  AC50: inconclusive: 46.1 µM
[2]
  AC50: inconclusive: 11.2 µM
[3]
  AC50: inconclusive: 46.1 µM

## CCOC(=O)CC1(C)OCC(C)O1 (stereo not given)
[1]
  AC50: inconclusive: 77.9 µM
[2]
  outcome: inactive
[3]
  AC50: inconclusive: 46.1 µM

## CCCCCC(C=O)=Cc1ccccc1
[1]
  AC50: inconclusive: 46.1 µM
[2]
  AC50: inconclusive: 46.1 µM and inconclusive: 23 µM
[3]
  AC50: inconclusive: 46.1 µM

## O=C(O)c1ccc(C(=O)O)cc1
[1]
  AC50: inconclusive: 45.8 µM
[2]
  AC50: inconclusive: 45.8 µM
[3]
  AC50: inconclusive: 45.8 µM
  outcome: inactive

## Cc1occc(=O)c1OC(=O)C(C)C
[1]
  AC50: inconclusive: 46.1 µM
[2]
  AC50: inconclusive: 46.1 µM
[3]
  AC50: inconclusive: 46.1 µM

## CC(=O)c1ccccc1
[1]
  outcome: inactive
[2]
  outcome: inactive
[3]
  AC50: inconclusive: 46.1 µM
  outcome: inactive
[4]
  outcome: inactive

## CCOC(=O)C(C#N)=C(c1ccccc1)c1ccccc1
[1]
  AC50: inconclusive: 84.8 µM
[2]
  AC50: inconclusive: 43.3 µM
[3]
  AC50: inconclusive: 23 µM

## CCCCCCCCSCCO
[1]
  AC50: inconclusive: 46.1 µM
[2]
  AC50: inconclusive: 1.31 µM
[3]
  AC50: inconclusive: 46.1 µM

## O=C(O)c1cccc(C(F)(F)F)c1
[1]
  outcome: inactive
[2]
  outcome: inactive
[3]
  outcome: inactive

## Nc1nc(N)c2nc(CNc3ccc(C(=O)N[C@@H](CCC(=O)O)C(=O)O)cc3)cnc2n1
[1]
  AC50: active: 0.0491 µM
[2]
  AC50: active: 64.9 nM and inconclusive: 23 µM
[3]
  AC50: active: 0.0582 µM
[6]
  AC50: inconclusive: 0.951 µM

## CCCCC(CC)COC(=O)CCCCC(=O)OCC(CC)CCCC (stereo not given)
[1]
  AC50: inconclusive: 46.1 µM and inconclusive: 45.9 µM
[2]
  AC50: inconclusive: 45.9 µM
[3]
  AC50: inconclusive: 46.1 µM

## CCCCCCCCCCCCCCCC(=O)OC/C=C(C)/C=C/C=C(C)/C=C/C1=C(C)CCCC1(C)C
[1]
  AC50: inconclusive: 46.1 µM and inconclusive: 23 µM
[2]
  AC50: inconclusive: 46.1 µM
[3]
  AC50: inconclusive: 8.72 µM

## N#CCCCC(C#N)CCC#N (stereo not given)
[1]
  outcome: inactive
[2]
  AC50: inconclusive: 46.1 µM
[3]
  AC50: inconclusive: 46.1 µM

## CCOCCO
[1]
  outcome: inactive
[2]
  AC50: inconclusive: 46.1 µM
[3]
  AC50: inconclusive: 46.1 µM
[7]
  AC50: inconclusive: 86.2 µM
[4]
  AC50: inconclusive: 86.5 µM
[8]
  AC50: inconclusive: 20.5 µM

## CC(C)(C)c1ccccc1
[1]
  outcome: inactive
[2]
  outcome: inactive
[3]
  AC50: inconclusive: 46.1 µM
[4]
  AC50: active: 4.3 µM

## CC(O)CN(CCN(CC(C)O)CC(C)O)CC(C)O (stereo not given)
[1]
  AC50: inconclusive: 46.7 µM
[2]
  AC50: inconclusive: 23 µM
[3]
  outcome: inactive
[4]
  AC50: inconclusive: 4.77 µM

## C=C(C)OC(C)=O
[1]
  outcome: inactive
[2]
  AC50: inconclusive: 80.2 µM
[3]
  AC50: inconclusive: 47.3 µM

## CN1CCOCC1
[1]
  AC50: inconclusive: 75.8 µM and inconclusive: 45.3 µM
[2]
  AC50: inconclusive: 45.3 µM
[3]
  AC50: inconclusive: 46.1 µM
  outcome: inactive

## CCCCN(CCCC)CCCC
[1]
  outcome: inactive
[2]
  AC50: inconclusive: 46.1 µM and inconclusive: 46 µM
[3]
  AC50: inconclusive: 46.1 µM and inconclusive: 46 µM
[7]
  AC50: inconclusive: 30.1 µM

## C=C(C)C(=O)OCCOCCOCCOC(=O)C(=C)C
[1]
  AC50: inconclusive: 46.1 µM
[2]
  AC50: inconclusive: 46.1 µM
[3]
  AC50: inconclusive: 46.1 µM

## CCCCOC(=O)C(C)O (stereo not given)
[1]
  outcome: inactive
[2]
  AC50: inconclusive: 6.43 µM
[3]
  AC50: inconclusive: 46.1 µM

## COCCOC(=O)c1ccccc1C(=O)OCCOC
[1]
  AC50: inconclusive: 46.1 µM
[2]
  AC50: inconclusive: 3.3e-05 µM
[3]
  AC50: inconclusive: 46.1 µM
  outcome: inactive

## COc1ccc2c(c1)c(CC(=O)O)c(C)n2C(=O)c1ccc(Cl)cc1
[1]
  AC50: inconclusive: 46.1 µM
[2]
  AC50: inconclusive: 46.3 µM
[3]
  AC50: inconclusive: 46.3 µM and inconclusive: 23 µM
[5]
  AC50: inconclusive: 11.7 µM
[4]
  AC50: inconclusive: 0.0716 µM
